Experimental data: PubChem BioAssay AID602196 (INSERM, 2012)

- Purpose: 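Knock-downs that protect lung cancer cells from cisplatin or sensitise them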
- Cell system: human A549 lung cancer cells
- Reagents: siRNA pair against human genes
- Timing: 48 h transfection before cisplatin; time from cisplatin to read-out not stated
- Conditions: cisplatin at a dose killing half of control-siRNA cells; exact dose and duration not given
- Measurement: 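Shift in cisplatin death relative to control siRNA, from -50 (all cells die) to +50 (no cells die); siRNAs harmful on their own scored 0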
- Scale: two-siRNA summed score (-2 to +2): higher = both siRNAs protect from cisplatin killing; -2 means both sensitise; mean protection from cisplatin (shift in death) and protection from cisplatin (shift in death), siRNA C and protection from cisplatin (shift in death), siRNA D: higher = protection from cisplatin killing
- Call rule: 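Each siRNA scores 0 if harmful alone by LDH or WST-1, otherwise +1 if it reduces and -1 if it increases cisplatin killing; a gene is active when both siRNAs agree (sum +2 or -2)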
- Meaning of the calls: active = both siRNAs shift cisplatin killing the same way; inactive = no consistent shift, or siRNA harmful alone
Here is a random part of about 23,000 reagents tested. Over the whole deposit, 455 (2%) were called active. 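Active includes both protection and sensitisation; some change values fall well beyond the stated -50 to +50 range.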 No sequences are given here. Not given: the amount of reagent.

gene symbol	two-siRNA summed score (-2 to +2)	mean protection from cisplatin (shift in death) (%)	protection from cisplatin (shift in death), siRNA C (%)	protection from cisplatin (shift in death), siRNA D (%)	Call
OR13A1	0	14.4	19.8	9	inactive
SLC6A4	0	4.4	9	-0.1	inactive
ITGB4	0	-5.2	-22	11.5	inactive
CITED4	0	9.3	-2.7	21.4	inactive
SLC7A1	-1	-13	0.4	-26.4	inactive
LOC400353	0	9.6	6.9	12.3	inactive
OR10K2	0	5	10.6	-0.6	inactive
CSRNP2	0	6.8	13.2	0.4	inactive
NAA35	0	1.8	-3.4	6.9	inactive
CT55	0	4.1	3.1	5.1	inactive
EFCC1	0	-0.4	4.2	-5	inactive
RBMX	0	6.1	7.6	4.7	inactive
ZNF804A	0	-4.1	-5.3	-2.9	inactive
CTAGE1	1	6.1	21.3	-9.2	inactive
HOMER3	1	9.6	10.5	8.8	inactive
TMA16	0	-2.9	-5.8	0.1	inactive
BRF1	0	24.1	33.8	14.4	inactive
BEND4	0	6.9	0.3	13.4	inactive
ADCK1	0	4.5	5.5	3.5	inactive
SPRY2	0	2	9.7	-5.6	inactive
HSD17B11	-1	-14	4.7	-32.7	inactive
MMP15	0	-7.7	-8.7	-6.8	inactive
SRM	1	6.1	17.4	-5.3	inactive
SCGB3A1	1	13.6	3.9	23.2	inactive
D-JC6	0	-4.4	2.9	-11.6	inactive
LOC442001	2	16.7	16.8	16.6	active
LEAP2	0	2	-0.4	4.4	inactive
GAL3ST1	0	4.1	8.5	-0.3	inactive
JMJD1C	0	-3.2	-7.1	0.8	inactive
ANGEL2	0	10.8	9.8	11.8	inactive
CUL3	-1	-11.3	9.9	-32.5	inactive
PTPN3	1	6.2	8.2	4.2	inactive
CD70	0	28.8	17.6	40	inactive
LOC442439	0	16.6	23.5	9.8	inactive
TMEM50A	0	0.3	-6.2	6.7	inactive
DRD2	-1	-2	8.5	-12.6	inactive
SRGAP2	0	3.1	13.9	-7.6	inactive
FITM2	0	9.5	13.7	5.2	inactive
CLPX	0	-1.9	0.6	-4.4	inactive

Sorted by “protection from cisplatin (shift in death), siRNA D (%)” (lowest first): some entries from above.
gene symbol	two-siRNA summed score (-2 to +2)	mean protection from cisplatin (shift in death) (%)	protection from cisplatin (shift in death), siRNA C (%)	protection from cisplatin (shift in death), siRNA D (%)	Call
SLC7A1	-1	-13	0.4	-26.4	inactive
OR10K2	0	5	10.6	-0.6	inactive
LOC400353	0	9.6	6.9	12.3	inactive
